These are yes or no findings as the source states them, for the method shown. Binding seen in cells or lysates may run through a third protein. Some results given as binding are weak or reduced against the parent protein; the word gives no strength.
Target: Bax (Bcl-2-associated X protein) (human (endogenous in HCT-116)), Q07812
Assay: co-IP; anti-Bax antibody added to HCT-116 cell lysates, 2 h at ambient temperature, captured on protein G/A-agarose, washed three times with PBS; Western blot with PUMA, Bax 6A7 or Bax antibody; cells treated with pazopanib
Conditions: remark: other sources report otherwise

- binding: binds
B1: PUMA (p53 up-regulated modulator of apoptosis), Q9BXH1 1-193 (protein)
chain: MARARQEGSSPEPVEGLARDGPRPFPLGRLVPSAVSCGLCEPGLAAAPAAPTLLPAAYLCAPTAPPAVTAALGGSRWPGGPRSRPRGPRPDGPQPSLSLAEQHLESPVPSAPGALAGGPTQAAPGVRGEEEQWAREIGAQLRRMADDLNAQYERRRQEEQQRHRPSPWRVLYNLIMGLLPLPRGHRAPEMEPN

Source: paper PMC5356882
